# Reference: the supplement of paper PMC8728848
# The other results are listed elsewhere or left out.
# Experiments:
# Experiment in all cases: glycan array binding signal (z-score within array); higher = stronger binding
# Settings in all cases: glycan notation: IUPAC condensed, linker removed
# [1] = biological target: GlcNAc(b1-3)Gal(b1-3)GalNAc
# Outline: (§1)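 The binding signal is a Z-score computed within each array and averaged over linkers. Arrays of the same protein sequence at different concentrations or buffers were also averaged together. Data originate from 3228 arrays in the Consortium for Functional Glycomics database, kept only where the protein sequence was available.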
# [2] = biological target: GlcNAc(b1-3)Gal(b1-4)Glc
# Outline: as §1
# [3] = biological target: GlcNAc(b1-3)Gal(b1-4)GlcNAc
# Outline: as §1
# [4] = biological target: GlcNAc(b1-3)Gal(b1-4)GlcNAc(b1-2)Man(a1-3)[GlcNAc(b1-3)Gal(b1-4)GlcNAc(b1-2)Man(a1-6)]Man(b1-4)GlcNAc(b1-4)GlcNAc
# Outline: as §1
# [5] = biological target: GlcNAc(b1-3)Gal(b1-4)GlcNAc(b1-2)Man(a1-3)[GlcNAc(b1-3)Gal(b1-4)GlcNAc(b1-2)Man(a1-6)]Man(b1-4)GlcNAc(b1-4)[Fuc(a1-6)]GlcNAc
# Outline: as §1
# [6] = biological target: GlcNAc(b1-3)Gal(b1-4)GlcNAc(b1-2)[GlcNAc(b1-3)Gal(b1-4)GlcNAc(b1-6)]Man(a1-6)[GlcNAc(b1-3)Gal(b1-4)GlcNAc(b1-2)Man(a1-3)]Man(b1-4)GlcNAc(b1-4)GlcNAc
# Outline: as §1
# [7] = biological target: GlcNAc(b1-3)Gal(b1-4)GlcNAc(b1-3)Gal(b1-4)GlcNAc
# Outline: as §1
# [8] = biological target: GlcNAc(b1-3)Gal(b1-4)GlcNAc(b1-3)Gal(b1-4)GlcNAc(b1-2)Man(a1-3)[GlcNAc(b1-3)Gal(b1-4)GlcNAc(b1-3)Gal(b1-4)GlcNAc(b1-2)Man(a1-6)]Man(b1-4)GlcNAc(b1-4)GlcNAc
# Outline: as §1
# [9] = biological target: GlcNAc(b1-3)Gal(b1-4)GlcNAc(b1-3)Gal(b1-4)GlcNAc(b1-2)Man(a1-3)[GlcNAc(b1-3)Gal(b1-4)GlcNAc(b1-3)Gal(b1-4)GlcNAc(b1-2)Man(a1-6)]Man(b1-4)GlcNAc(b1-4)[Fuc(a1-6)]GlcNAc
# Outline: as §1
# [10] = biological target: GlcNAc(b1-3)Gal(b1-4)GlcNAc(b1-3)Gal(b1-4)GlcNAc(b1-2)[GlcNAc(b1-3)Gal(b1-4)GlcNAc(b1-3)Gal(b1-4)GlcNAc(b1-6)]Man(a1-6)[GlcNAc(b1-3)Gal(b1-4)GlcNAc(b1-3)Gal(b1-4)GlcNAc(b1-2)Man(a1-3)]Man(b1-4)GlcNAc(b1-4)[Fuc(a1-6)]GlcNAc
# Outline: as §1
# [11] = biological target: GlcNAc(b1-3)Gal(b1-4)GlcNAc(b1-3)Gal(b1-4)GlcNAc(b1-3)Gal(b1-4)GlcNAc(b1-2)Man(a1-3)[GlcNAc(b1-3)Gal(b1-4)GlcNAc(b1-3)Gal(b1-4)GlcNAc(b1-3)Gal(b1-4)GlcNAc(b1-2)Man(a1-6)]Man(b1-4)GlcNAc(b1-4)GlcNAc
# Outline: as §1
# [12] = biological target: GlcNAc(b1-3)Gal(b1-4)GlcNAc(b1-3)Gal(b1-4)GlcNAc(b1-3)Gal(b1-4)GlcNAc(b1-2)Man(a1-3)[GlcNAc(b1-3)Gal(b1-4)GlcNAc(b1-3)Gal(b1-4)GlcNAc(b1-3)Gal(b1-4)GlcNAc(b1-2)Man(a1-6)]Man(b1-4)GlcNAc(b1-4)[Fuc(a1-6)]GlcNAc
# Outline: as §1
# [13] = biological target: GlcNAc(b1-3)Gal(b1-4)GlcNAc(b1-3)Gal(b1-4)GlcNAc(b1-3)Gal(b1-4)GlcNAc(b1-2)[GlcNAc(b1-3)Gal(b1-4)GlcNAc(b1-3)Gal(b1-4)GlcNAc(b1-3)Gal(b1-4)GlcNAc(b1-6)]Man(a1-6)[GlcNAc(b1-3)Gal(b1-4)GlcNAc(b1-3)Gal(b1-4)GlcNAc(b1-3)Gal(b1-4)GlcNAc(b1-2)Man(a1-3)]Man(b1-4)GlcNAc(b1-4)[Fuc(a1-6)]GlcNAc
# Outline: as §1
# [14] = biological target: GlcNAc(b1-3)Gal(b1-4)GlcNAc(b1-3)Gal(b1-4)GlcNAc(b1-3)Gal(b1-4)GlcNAc(b1-3)Gal(b1-4)GlcNAc(b1-2)Man(a1-3)[GlcNAc(b1-3)Gal(b1-4)GlcNAc(b1-3)Gal(b1-4)GlcNAc(b1-3)Gal(b1-4)GlcNAc(b1-3)Gal(b1-4)GlcNAc(b1-2)Man(a1-6)]Man(b1-4)GlcNAc(b1-4)GlcNAc
# Outline: as §1
# [15] = biological target: GlcNAc(b1-3)Gal(b1-4)GlcNAc(b1-3)Gal(b1-4)GlcNAc(b1-3)Gal(b1-4)GlcNAc(b1-3)Gal(b1-4)GlcNAc(b1-2)Man(a1-3)[GlcNAc(b1-3)Gal(b1-4)GlcNAc(b1-3)Gal(b1-4)GlcNAc(b1-3)Gal(b1-4)GlcNAc(b1-3)Gal(b1-4)GlcNAc(b1-2)Man(a1-6)]Man(b1-4)GlcNAc(b1-4)[Fuc(a1-6)]GlcNAc
# Outline: as §1
# [16] = biological target: GlcNAc(b1-3)Gal(b1-4)GlcNAc(b1-3)Gal(b1-4)GlcNAc(b1-3)Gal(b1-4)GlcNAc(b1-3)Gal(b1-4)GlcNAc(b1-2)[GlcNAc(b1-3)Gal(b1-4)GlcNAc(b1-3)Gal(b1-4)GlcNAc(b1-3)Gal(b1-4)GlcNAc(b1-3)Gal(b1-4)GlcNAc(b1-6)]Man(a1-6)[GlcNAc(b1-3)Gal(b1-4)GlcNAc(b1-3)Gal(b1-4)GlcNAc(b1-3)Gal(b1-4)GlcNAc(b1-3)Gal(b1-4)GlcNAc(b1-2)Man(a1-3)]Man(b1-4)GlcNAc(b1-4)[Fuc(a1-6)]GlcNAc
# Outline: as §1
# [17] = biological target: GlcNAc(b1-3)Gal(b1-4)GlcNAc(b1-3)Gal(b1-4)GlcNAc(b1-3)GalNAc
# Outline: as §1
# [18] = biological target: GlcNAc(b1-3)Gal(b1-4)GlcNAc(b1-3)GalNAc
# Outline: as §1
# [19] = biological target: GlcNAc(b1-3)Gal(b1-4)GlcNAc(b1-3)[GlcNAc(b1-3)Gal(b1-4)GlcNAc(b1-3)]GalNAc
# Outline: as §1
# [20] = biological target: GlcNAc(b1-3)Gal(b1-4)GlcNAc(b1-6)[Gal(b1-3)]GalNAc
# Outline: as §1
# [21] = biological target: GlcNAc(b1-3)Gal(b1-4)GlcNAc(b1-6)[GlcNAc(b1-3)Gal(b1-3)]GalNAc
# Outline: as §1
# [22] = biological target: GlcNAc(b1-3)Gal(b1-4)GlcNAc(b1-6)[GlcNAc(b1-3)]Gal(b1-4)GlcNAc
# Outline: as §1
# [23] = biological target: GlcNAc(b1-3)GalNAc
# Outline: as §1
# [24] = biological target: GlcNAc(b1-3)Man
# Outline: as §1
# [25] = biological target: GlcNAc(b1-3)[GlcNAc(b1-4)][GlcNAc(b1-6)]GlcNAc
# Outline: as §1
# [26] = biological target: GlcNAc(b1-3)[GlcNAc(b1-6)]Gal(b1-4)GlcNAc
# Outline: as §1
# [27] = biological target: GlcNAc(b1-3)[GlcNAc(b1-6)]GalNAc
# Outline: as §1
# [28] = biological target: GlcNAc(b1-4)Gal(b1-4)GlcNAc
# Outline: as §1
# [29] = biological target: GlcNAc(b1-4)GlcNAc
# Outline: as §1
# [30] = biological target: GlcNAc(b1-4)GlcNAc(b1-4)GlcNAc
# Outline: as §1
# [31] = biological target: GlcNAc(b1-4)GlcNAc(b1-4)GlcNAc(b1-4)GlcNAc(b1-4)GlcNAc
# Outline: as §1
# [32] = biological target: GlcNAc(b1-4)GlcNAc(b1-4)GlcNAc(b1-4)GlcNAc(b1-4)GlcNAc(b1-4)GlcNAc
# Outline: as §1
# [33] = biological target: GlcNAc(b1-4)[GlcNAc(b1-6)]GalNAc
# Outline: as §1
# [34] = biological target: GlcNAc(b1-6)Gal(b1-4)GlcNAc
# Outline: as §1
# [35] = biological target: GlcNAc(b1-6)GalNAc
# Outline: as §1
# [36] = biological target: GlcNAc6S(b1-3)Gal(b1-4)GlcNAc
# Outline: as §1
# [37] = biological target: Kdn(a2-3)Gal(b1-3)GalNAc
# Outline: as §1
# [38] = biological target: Kdn(a2-3)Gal(b1-3)GlcNAc
# Outline: as §1
# [39] = biological target: Kdn(a2-3)Gal(b1-4)Glc
# Outline: as §1
# [40] = biological target: Kdn(a2-3)Gal(b1-4)GlcNAc
# Outline: as §1
# [41] = biological target: Kdn(a2-3)Gal(b1-4)[Fuc(a1-3)]GlcNAc
# Outline: as §1
# [42] = biological target: Kdn(a2-6)Gal(b1-4)GlcNAc
# Outline: as §1
# [43] = biological target: Man(a1-2)Man(a1-2)Man(a1-3)Man
# Outline: as §1
# [44] = biological target: Man(a1-2)Man(a1-2)Man(a1-6)[Man(a1-3)]Man
# Outline: as §1
# [45] = biological target: Man(a1-2)Man(a1-3)Man
# Outline: as §1
binder,measurement,setting,value
BIp1-His (Cryptococcus neoformans) (protein) MFTKIFVALFAATAVLSAPVESAEKRITHTGRATFYSPSVGIGACGWQNTDEELVVALNAPQYALNADHNCGQSVRITNEQNGNQEIAKVVDLCPGCNDGDLDMSPALFGALNNNDFDQGVFPISWNFLPRDDTSSSN,glycan array binding signal (z-score),[1],0.752
same,glycan array binding signal (z-score),[2],-0.658
same,glycan array binding signal (z-score),[3],-0.471
same,glycan array binding signal (z-score),[4],-0.301
same,glycan array binding signal (z-score),[5],0.929
same,glycan array binding signal (z-score),[6],1.14
same,glycan array binding signal (z-score),[7],0.094
same,glycan array binding signal (z-score),[8],1.87
same,glycan array binding signal (z-score),[9],1.5
same,glycan array binding signal (z-score),[10],2.23
same,glycan array binding signal (z-score),[11],2.51
same,glycan array binding signal (z-score),[12],3.44
same,glycan array binding signal (z-score),[13],1.41
same,glycan array binding signal (z-score),[14],1.13
same,glycan array binding signal (z-score),[15],1.04
same,glycan array binding signal (z-score),[16],0.882
same,glycan array binding signal (z-score),[17],0.503
same,glycan array binding signal (z-score),[18],0.405
same,glycan array binding signal (z-score),[19],-0.341
same,glycan array binding signal (z-score),[20],-0.259
same,glycan array binding signal (z-score),[21],-0.564
same,glycan array binding signal (z-score),[22],-0.36
same,glycan array binding signal (z-score),[23],-0.45
same,glycan array binding signal (z-score),[24],0.039
same,glycan array binding signal (z-score),[25],-0.27
same,glycan array binding signal (z-score),[26],0.278
same,glycan array binding signal (z-score),[27],-0.522
same,glycan array binding signal (z-score),[28],0.256
same,glycan array binding signal (z-score),[29],-0.2
same,glycan array binding signal (z-score),[30],-0.349
same,glycan array binding signal (z-score),[31],0.117
same,glycan array binding signal (z-score),[32],-0.558
same,glycan array binding signal (z-score),[33],-0.745
same,glycan array binding signal (z-score),[34],0.155
same,glycan array binding signal (z-score),[35],-0.325
same,glycan array binding signal (z-score),[36],-0.035
same,glycan array binding signal (z-score),[37],0.812
same,glycan array binding signal (z-score),[38],0.398
same,glycan array binding signal (z-score),[39],-1.06
same,glycan array binding signal (z-score),[40],-0.674
same,glycan array binding signal (z-score),[41],0.61
same,glycan array binding signal (z-score),[42],0.895
same,glycan array binding signal (z-score),[43],0.477
same,glycan array binding signal (z-score),[44],0.218
same,glycan array binding signal (z-score),[45],-0.136
